Reference: US20260355318A1, “MOLECULAR MACHINES FOR TREATMENT OF CANCER, FUNGAL INFECTIONS, OR BACTERIAL INFECTIONS” (priority 2022, published 2026)
The name of at least one read-out is uncertain.

Tested on: biofilms of P. aeruginosa and S. aureus
Assay: Biofilm biomass (crystal violet)
Assay type: cell-based, Pseudomonas aeruginosa, Staphylococcus aureus
Conditions: 2×MIC, vs untreated controls

Row | SMILES | reduction of biofilm biomass
1 | NC[C@H]1O[C@H](O[C@H]2[C@H](O)[C@@H](O[C@H]3O[C@H](CO)[C@@H](O)[C@H](N)[C@H]3O)[C@H](N)C[C@@H]2N)[C@H](N)C[C@@H]1O [Tobramycin] | up to 29%
2 | CO[C@H]1/C=C/O[C@@]2(C)Oc3c(C)c(O)c4c(O)c(c(/C=N/N5CCN(C)CC5)c(O)c4c3C2=O)NC(=O)/C(C)=C\C=C\[C@H](C)[C@H](O)[C@@H](C)[C@@H](O)[C@@H](C)[C@H](OC(C)=O)[C@@H]1C [rifampin] | up to 29%
